Measured values as given in the supplement of paper PMC11006884.
What follows is the remainder of the data, with few or none of the targets with a hit. This is a noisy data set. The entries are a selection whose mix differs from that of the whole data set.

Sequences of proteins named here, by UniProt entry; tags and fusion partners are left off. A change or cut given only in a name is not applied to a line headed by its entry.
UniProt P23528, whole entry, looked up: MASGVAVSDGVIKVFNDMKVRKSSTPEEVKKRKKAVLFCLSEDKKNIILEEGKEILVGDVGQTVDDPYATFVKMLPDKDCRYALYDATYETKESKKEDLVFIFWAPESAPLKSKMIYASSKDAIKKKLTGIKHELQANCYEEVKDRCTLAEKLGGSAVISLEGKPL
UniProt P20936: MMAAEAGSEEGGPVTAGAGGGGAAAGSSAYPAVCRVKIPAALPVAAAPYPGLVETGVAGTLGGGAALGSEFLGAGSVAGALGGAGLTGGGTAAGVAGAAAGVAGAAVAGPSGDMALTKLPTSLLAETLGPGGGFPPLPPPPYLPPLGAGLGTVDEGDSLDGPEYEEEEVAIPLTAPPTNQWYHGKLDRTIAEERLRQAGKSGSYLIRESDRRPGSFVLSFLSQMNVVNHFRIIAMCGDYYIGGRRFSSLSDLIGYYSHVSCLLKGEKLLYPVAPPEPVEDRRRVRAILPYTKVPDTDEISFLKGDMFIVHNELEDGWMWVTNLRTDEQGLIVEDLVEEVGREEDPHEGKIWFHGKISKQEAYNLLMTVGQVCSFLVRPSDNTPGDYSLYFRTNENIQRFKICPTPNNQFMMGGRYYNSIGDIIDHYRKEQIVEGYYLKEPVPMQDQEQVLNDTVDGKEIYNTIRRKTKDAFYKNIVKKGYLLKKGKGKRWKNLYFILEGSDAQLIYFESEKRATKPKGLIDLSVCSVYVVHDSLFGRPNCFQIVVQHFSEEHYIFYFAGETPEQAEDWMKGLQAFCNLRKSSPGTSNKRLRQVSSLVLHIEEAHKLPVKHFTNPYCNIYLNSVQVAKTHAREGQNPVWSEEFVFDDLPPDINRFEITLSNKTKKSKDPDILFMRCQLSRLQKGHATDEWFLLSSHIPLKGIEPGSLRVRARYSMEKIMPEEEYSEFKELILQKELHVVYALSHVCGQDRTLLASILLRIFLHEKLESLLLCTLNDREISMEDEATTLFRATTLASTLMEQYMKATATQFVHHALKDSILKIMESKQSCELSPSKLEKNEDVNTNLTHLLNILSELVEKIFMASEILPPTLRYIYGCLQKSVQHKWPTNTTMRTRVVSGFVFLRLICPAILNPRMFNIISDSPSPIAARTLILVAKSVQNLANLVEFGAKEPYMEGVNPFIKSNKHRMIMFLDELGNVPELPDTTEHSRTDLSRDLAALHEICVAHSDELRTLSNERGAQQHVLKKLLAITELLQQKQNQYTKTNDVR
UniProt P26640: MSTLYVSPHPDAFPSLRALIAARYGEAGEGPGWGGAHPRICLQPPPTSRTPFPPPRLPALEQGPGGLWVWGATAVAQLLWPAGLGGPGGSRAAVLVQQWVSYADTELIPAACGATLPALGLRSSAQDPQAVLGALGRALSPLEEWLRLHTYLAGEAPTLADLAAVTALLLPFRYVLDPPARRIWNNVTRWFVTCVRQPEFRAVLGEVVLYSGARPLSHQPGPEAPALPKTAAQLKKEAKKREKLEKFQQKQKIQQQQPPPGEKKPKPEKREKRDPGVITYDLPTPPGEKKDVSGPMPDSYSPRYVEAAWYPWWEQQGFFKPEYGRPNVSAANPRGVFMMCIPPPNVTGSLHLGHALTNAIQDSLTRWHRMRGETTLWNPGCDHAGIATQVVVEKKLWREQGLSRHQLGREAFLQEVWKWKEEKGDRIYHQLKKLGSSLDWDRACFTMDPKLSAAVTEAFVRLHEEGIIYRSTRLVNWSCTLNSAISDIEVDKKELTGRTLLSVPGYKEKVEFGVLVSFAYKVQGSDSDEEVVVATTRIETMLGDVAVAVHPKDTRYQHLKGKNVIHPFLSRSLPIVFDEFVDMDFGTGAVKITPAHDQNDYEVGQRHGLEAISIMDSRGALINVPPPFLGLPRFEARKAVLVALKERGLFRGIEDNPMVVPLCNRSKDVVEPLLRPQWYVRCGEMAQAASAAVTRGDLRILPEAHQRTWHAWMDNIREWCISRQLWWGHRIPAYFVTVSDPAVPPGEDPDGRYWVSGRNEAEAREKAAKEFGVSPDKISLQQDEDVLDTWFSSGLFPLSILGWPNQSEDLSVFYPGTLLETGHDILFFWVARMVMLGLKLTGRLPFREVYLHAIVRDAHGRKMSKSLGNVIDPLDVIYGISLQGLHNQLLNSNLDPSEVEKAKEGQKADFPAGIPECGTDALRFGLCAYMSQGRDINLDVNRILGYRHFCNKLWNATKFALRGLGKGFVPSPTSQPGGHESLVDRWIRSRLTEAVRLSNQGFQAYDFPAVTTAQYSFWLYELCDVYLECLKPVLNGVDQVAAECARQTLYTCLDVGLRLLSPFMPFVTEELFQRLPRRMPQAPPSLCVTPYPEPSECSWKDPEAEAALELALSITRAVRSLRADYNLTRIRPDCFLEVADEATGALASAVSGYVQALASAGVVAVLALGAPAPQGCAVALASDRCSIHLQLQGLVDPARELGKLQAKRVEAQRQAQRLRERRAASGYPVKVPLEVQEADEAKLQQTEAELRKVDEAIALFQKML
UniProt P27695, whole entry, looked up: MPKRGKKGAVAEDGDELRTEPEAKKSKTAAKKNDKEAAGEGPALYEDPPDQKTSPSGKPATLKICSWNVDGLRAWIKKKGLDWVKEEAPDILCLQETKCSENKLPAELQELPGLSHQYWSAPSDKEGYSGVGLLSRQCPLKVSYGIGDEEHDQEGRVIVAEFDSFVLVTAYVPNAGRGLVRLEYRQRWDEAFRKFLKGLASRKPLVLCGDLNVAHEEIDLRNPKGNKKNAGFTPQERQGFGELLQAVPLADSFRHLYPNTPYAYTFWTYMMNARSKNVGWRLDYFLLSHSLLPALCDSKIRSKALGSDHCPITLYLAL
UniProt P17987, whole entry, looked up: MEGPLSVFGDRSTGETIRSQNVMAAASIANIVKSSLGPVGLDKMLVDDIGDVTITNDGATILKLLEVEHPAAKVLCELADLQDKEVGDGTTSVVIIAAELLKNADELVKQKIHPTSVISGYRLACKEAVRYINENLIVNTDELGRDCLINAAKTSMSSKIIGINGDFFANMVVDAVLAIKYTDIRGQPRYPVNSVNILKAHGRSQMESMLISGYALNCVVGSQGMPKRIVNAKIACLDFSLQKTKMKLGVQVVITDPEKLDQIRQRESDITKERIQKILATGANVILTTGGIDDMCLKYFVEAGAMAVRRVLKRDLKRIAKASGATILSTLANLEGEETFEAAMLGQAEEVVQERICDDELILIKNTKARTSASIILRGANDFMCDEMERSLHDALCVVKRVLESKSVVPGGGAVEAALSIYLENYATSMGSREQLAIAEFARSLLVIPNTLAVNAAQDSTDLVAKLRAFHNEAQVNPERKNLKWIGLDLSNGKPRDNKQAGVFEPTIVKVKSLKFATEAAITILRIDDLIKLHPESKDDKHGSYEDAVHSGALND
UniProt P27708: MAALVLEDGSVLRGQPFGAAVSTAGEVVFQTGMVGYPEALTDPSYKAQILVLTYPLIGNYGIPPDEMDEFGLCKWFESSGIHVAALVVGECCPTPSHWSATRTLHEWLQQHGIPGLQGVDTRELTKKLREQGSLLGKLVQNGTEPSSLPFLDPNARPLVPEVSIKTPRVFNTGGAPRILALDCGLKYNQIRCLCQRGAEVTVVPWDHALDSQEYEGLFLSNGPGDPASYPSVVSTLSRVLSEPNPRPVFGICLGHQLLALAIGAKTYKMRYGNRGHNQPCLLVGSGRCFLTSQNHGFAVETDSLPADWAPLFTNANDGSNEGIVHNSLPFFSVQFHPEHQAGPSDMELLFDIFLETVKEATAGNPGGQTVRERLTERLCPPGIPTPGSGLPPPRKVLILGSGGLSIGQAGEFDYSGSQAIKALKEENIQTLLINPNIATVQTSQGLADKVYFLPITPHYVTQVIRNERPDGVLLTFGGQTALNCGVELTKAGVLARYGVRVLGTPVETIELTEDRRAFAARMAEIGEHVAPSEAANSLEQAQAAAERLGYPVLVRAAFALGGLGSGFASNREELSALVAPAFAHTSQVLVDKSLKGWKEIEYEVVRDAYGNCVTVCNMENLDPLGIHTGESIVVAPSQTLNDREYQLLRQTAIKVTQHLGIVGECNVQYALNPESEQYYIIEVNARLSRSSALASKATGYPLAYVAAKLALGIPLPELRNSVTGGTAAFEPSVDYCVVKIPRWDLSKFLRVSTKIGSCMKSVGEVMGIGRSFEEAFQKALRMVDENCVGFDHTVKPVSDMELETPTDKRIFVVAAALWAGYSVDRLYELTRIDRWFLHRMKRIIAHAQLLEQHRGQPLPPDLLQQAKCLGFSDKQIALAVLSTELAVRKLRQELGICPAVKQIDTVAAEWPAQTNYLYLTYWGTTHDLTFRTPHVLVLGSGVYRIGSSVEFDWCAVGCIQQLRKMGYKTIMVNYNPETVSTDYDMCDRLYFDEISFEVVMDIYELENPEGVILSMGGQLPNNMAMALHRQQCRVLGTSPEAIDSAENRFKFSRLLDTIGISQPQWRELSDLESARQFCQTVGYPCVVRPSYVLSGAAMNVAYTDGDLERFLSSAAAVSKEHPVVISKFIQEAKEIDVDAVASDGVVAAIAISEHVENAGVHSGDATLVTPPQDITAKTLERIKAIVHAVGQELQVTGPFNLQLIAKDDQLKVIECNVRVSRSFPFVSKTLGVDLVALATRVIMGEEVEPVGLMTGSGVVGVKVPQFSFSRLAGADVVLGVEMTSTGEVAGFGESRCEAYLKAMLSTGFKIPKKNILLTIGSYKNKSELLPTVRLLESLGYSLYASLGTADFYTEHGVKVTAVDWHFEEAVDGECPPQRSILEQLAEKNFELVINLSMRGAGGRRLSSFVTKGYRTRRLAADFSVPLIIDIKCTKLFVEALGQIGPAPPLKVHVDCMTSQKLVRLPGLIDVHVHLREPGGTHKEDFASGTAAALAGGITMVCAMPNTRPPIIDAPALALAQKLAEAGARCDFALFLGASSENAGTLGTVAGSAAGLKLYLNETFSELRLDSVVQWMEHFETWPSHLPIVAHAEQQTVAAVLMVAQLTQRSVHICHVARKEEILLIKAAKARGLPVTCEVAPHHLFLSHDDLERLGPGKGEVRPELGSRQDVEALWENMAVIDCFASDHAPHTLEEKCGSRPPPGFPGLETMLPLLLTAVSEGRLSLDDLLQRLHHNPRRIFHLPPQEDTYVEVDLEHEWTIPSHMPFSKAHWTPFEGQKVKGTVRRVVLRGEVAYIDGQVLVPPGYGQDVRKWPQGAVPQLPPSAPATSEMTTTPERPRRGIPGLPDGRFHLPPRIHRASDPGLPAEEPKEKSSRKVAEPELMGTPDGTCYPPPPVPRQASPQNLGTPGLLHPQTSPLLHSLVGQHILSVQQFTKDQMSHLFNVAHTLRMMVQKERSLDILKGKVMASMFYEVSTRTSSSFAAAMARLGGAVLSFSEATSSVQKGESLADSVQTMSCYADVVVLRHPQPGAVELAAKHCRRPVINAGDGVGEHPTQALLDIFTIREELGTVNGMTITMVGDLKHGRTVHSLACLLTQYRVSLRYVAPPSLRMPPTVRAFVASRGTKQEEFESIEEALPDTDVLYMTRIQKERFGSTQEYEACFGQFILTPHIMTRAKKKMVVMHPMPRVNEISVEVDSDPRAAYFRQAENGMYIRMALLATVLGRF
UniProt P26599: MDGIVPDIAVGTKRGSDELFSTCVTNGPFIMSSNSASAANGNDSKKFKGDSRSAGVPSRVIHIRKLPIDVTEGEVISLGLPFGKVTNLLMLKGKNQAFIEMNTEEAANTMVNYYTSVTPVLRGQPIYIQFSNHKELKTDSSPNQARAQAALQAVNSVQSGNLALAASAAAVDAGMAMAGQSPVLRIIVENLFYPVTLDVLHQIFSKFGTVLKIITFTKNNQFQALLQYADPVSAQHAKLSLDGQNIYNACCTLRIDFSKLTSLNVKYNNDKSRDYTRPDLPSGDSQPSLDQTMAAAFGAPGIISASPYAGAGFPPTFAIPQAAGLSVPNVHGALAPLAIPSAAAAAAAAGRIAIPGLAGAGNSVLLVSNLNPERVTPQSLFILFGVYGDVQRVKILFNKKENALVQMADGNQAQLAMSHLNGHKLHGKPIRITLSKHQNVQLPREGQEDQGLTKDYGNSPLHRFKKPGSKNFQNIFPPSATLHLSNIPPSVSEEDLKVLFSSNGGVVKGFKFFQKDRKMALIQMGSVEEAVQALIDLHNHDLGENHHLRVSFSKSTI

Compound: COC(=O)/C=C/c1ccccc1 [methyl cinnamate]
Test: log2 ratio of iodoacetamide-alkyne labeling of the cysteine site, DMSO over compound (competition); higher = stronger covalent engagement of the cysteine by the compound, active = 1 or more
Settings: 500 µM; treatment time 1 h; system: HEK293T cell lysate
Procedure, shortened: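 The log2 competition ratio per cysteine is defined as mean reporter intensity in control channels over mean reporter intensity in compound channels. Lysate from HEK293T cells (2 mg/mL) received electrophile (500 µM) or vehicle for 1 h at ambient temperature, followed by iodoacetamide alkyne for 1 h. Samples were clicked to sCIP-TMT reagents, pooled, trypsin-digested overnight at 37 °C, streptavidin-enriched, acid-eluted and run on Orbitrap Eclipse LC-MS/MS with FAIMS, with quantification in FragPipe. Three replicates with duplicate channels were used, and any cysteine quantified in only one replicate was excluded.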

Row | Target | log2 ratio of iodoacetamide-alkyne labeling
1 | RPL17 C57 (UniProt P18621) | inactive: 0.359
2 | ERP29 C157 (UniProt P30040) | inactive: 0.0552
3 | UniProt P25398_C56 | inactive: 0.128
4 | RPS3 C134 (UniProt P23396) | inactive: 0.369
5 | SON C92 (UniProt P18583) | inactive: 0.0119
6 | DCK C45 (UniProt P27707) | inactive: 0.548
7 | PML C57 (UniProt P29590) | inactive: 0.173
8 | CFL1 C147 (UniProt P23528) | inactive: 0.116
9 | UniProt P25398_C106 | inactive: 0.195
10 | LIG1 C508 (UniProt P18858) | inactive: 0.355
11 | AHCY C195 (UniProt P23526) | inactive: 0.196
12 | FLNA C2293 (UniProt P21333) | inactive: 0.27
13 | RASA1 C1002 (UniProt P20936) | inactive: 0.162
14 | VARS C41 (UniProt P26640) | inactive: 0.195
15 | NCL C543 (UniProt P19338) | inactive: 0.156
16 | GART C168 (UniProt P22102) | inactive: 0.459
17 | FLNA C574 (UniProt P21333) | inactive: 0.318
18 | YWHAQ C134 (UniProt P27348) | inactive: 0.126
19 | PAICS C288 (UniProt P22234) | inactive: 0.0462

Row | Target | log2 ratio of iodoacetamide-alkyne labeling
20 | PML C389 (UniProt P29590) | inactive: 0.35
21 | APEX1 C99 (UniProt P27695) | inactive: -0.039
22 | TCP1 C218 (UniProt P17987) | inactive: -0.342
23 | MAP4 C1008 (UniProt P27816) | inactive: 0.489
24 | CAD C1636 (UniProt P27708) | inactive: 0.242
25 | PTBP1 C251 (UniProt P26599) | inactive: 0.123
26 | U2AF2 C429 (UniProt P26368) | inactive: 0.132
27 | RPL12 C162 (UniProt P30050) | inactive: 0.0379
28 | ECHS1 C213 (UniProt P30084) | inactive: -0.208
29 | BTF3 C22 (UniProt P20290) | inactive: 0.551
30 | RPS3 C97 (UniProt P23396) | inactive: 0.505
31 | TPP2 C28 (UniProt P29144) | inactive: 0.241
32 | CFL1 C139 (UniProt P23528) | inactive: 0.553
33 | TEAD1 C53 (UniProt P28347) | inactive: 0.0297
34 | RPL12 C141 (UniProt P30050) | inactive: 0.0667
35 | VARS C381 (UniProt P26640) | inactive: 0.173
36 | TCP1 C357 (UniProt P17987) | inactive: 0.398
37 | APEX1 C65 (UniProt P27695) | inactive: 0.236

Rewritten in markdown: entries from further up.

| Row | Target | log2 ratio of iodoacetamide-alkyne labeling |
| --- | --- | --- |
| 28 | ECHS1 C213 (UniProt P30084) | inactive: -0.208 |
| 29 | BTF3 C22 (UniProt P20290) | inactive: 0.551 |
| 30 | RPS3 C97 (UniProt P23396) | inactive: 0.505 |
| 31 | TPP2 C28 (UniProt P29144) | inactive: 0.241 |
| 32 | CFL1 C139 (UniProt P23528) | inactive: 0.553 |
| 33 | TEAD1 C53 (UniProt P28347) | inactive: 0.0297 |
| 34 | RPL12 C141 (UniProt P30050) | inactive: 0.0667 |
| 35 | VARS C381 (UniProt P26640) | inactive: 0.173 |
| 36 | TCP1 C357 (UniProt P17987) | inactive: 0.398 |
| 37 | APEX1 C65 (UniProt P27695) | inactive: 0.236 |
